Test results: publication PMC12370185
The list shows a part of the results. For part of these data: At the low end of the ranking, values are background and their order means little.

Columns and labels:
Settings in all cases: 10 mM Tris-Cl pH 7.5, 50 mM NaCl, 1 mM DTT, 0.25 mg/ml BSA, 2 mM MgCl2, 0.025% Nonidet P-40, 5% glycerol; 28 nM nucleosome library; 10 min on ice then 30 min …; high values mean tight binding; double strand, one strand shown
KLF4 + histone octamer = experiment: EMSA with sequencing
SOX2 + histone octamer = experiment: EMSA with sequencing
[1] = system: c-MYC + MAX + histone octamer; experiment: EMSA with sequencing
OCT4 + histone octamer = experiment: Pioneer-seq (competitive nucleosome EMSA with sequencing)

Row | Sequence | binding signal (log2 relative supershift) (KLF4 + histone octamer) | binding signal (log2 relative supershift) (SOX2 + histone octamer) | binding signal (log2 relative supershift) [1] | binding signal (log2 relative supershift) (OCT4 + histone octamer)
1 | GATGGACCCTATACGCGGCACAAGAAAGTAATCCACGGAAGGAACAAGAAGTGTCCTAAACAGTAGCAAACCTTACACATCAGGACAATCACACAGGCTCTGGTGTCAGATTCCAGCTTCAACCTCATCGGTGTGACCTCAAGCAACTCATGCGCCCTCTTTTTCTCATGTGAAGTGAGAATATCATTGGCCACACCAAGGGTAGCCTAGTGCCAGTCGGATAGTGTTCC | 2.25 | 0.0503 | 0.0302 | -0.549
2 | GATGGACCCTATACGCGGCAAATGGGAGTATTTAGCTGGTATATGACCTTCTTCTAGGAACACTTGACTGGTAAGGCAAAAATGCCTCAAGGGAGCATGTGCACAGTTTCAGTAAACACTGTGCATGTGGCCCCTCCCAAGTGCTGGCAGGCTACTGTACATGTGGACAGTCCACCCCAAGGGAAGAATCAGGAGAAAGGATGCAACCCTTGCCAGTCGGATAGTGTTCC | 2.31 | 0.0232 | 0.401 | -0.218
3 | GATGGACCCTATACGCGGCTGGTTCATGTTCTTTATTGAACACCTTACATGGGTATGGACAGGGCCTATGGGTGGGGCAAGGCAGCAATGACAGCCTCAGTGAAGTCATGGCAAGTAGCATAGCCACCCATGTCAGAGGTTCGAACCTGTGGGGGAGAATCATCATCATCCATGTGGCCTGGGCTCCATCCTAACAATCCCCATCACCACTGCCAGTCGGATAGTGTTCC | 1.23 | 0.571 | 0.511 | -0.969
4 | GATGGACCCTATACGCGGCCCTCTCCTTTCATAATCATTTCCAAAGAGACTGAACAACCGGACATGGAACTTGACAGCATAATGCCAGCAGATTTGCACATCAGACATGAACAGCCACCCACATGGGTGGAGGGGGAGCATGTGTGTAGATGTGTATGTGTCCTGATTCACTGCTATAATACATGAGCCATAAATGGCATTATTTCAAGCTGCCAGTCGGATAGTGTTCC | 0.668 | 1.26 | 0.0473 | -0.342
5 | GATGGACCCTATACGCGGCATGAACATTCATTCGGGTGGCTGTCTTTGGGTGAACACATGGATGCATTTCTGGTGGGGGTGGAGTTGCCCGGTCATAAGGTATGTGCATGTTCACCTTGAGTAGATACTGCATAGCAGCGCAGTCCACCCAAAGCGGGTAGACAAATTTGCAATGCCATTGGCAGTGTGATGGGAGACACAGAAAGAGAGTGCCAGTCGGATAGTGTTCC | 1.66 | 0.701 | 0.584 | -0.717
6 | GATGGACCCTATACGCGGCCCTGTAGTGAGTCAGTGGTGCAAACAGGGATAGGTCTTTCAGATTCTAATCATGGTGCCTGTGCACTAGGCTGTGGCTAAACCTGCTTTGTAGTGTCTTTTCCTTGGGGTGACTCCTGTAGAACTGGGTGTTGCCAGCTGATATGGGTGATGCTCAGAGGCCTAAGGTTCAGGAGATTGGGAAGAGGAGGATGCCAGTCGGATAGTGTTCC | 2.22 | 0.00087 | 0.232 | -0.375
7 | GATGGACCCTATACGCGGCGAAGACAGGGAAGAGAGGAGGGAGAGAAGGGTGACAGGGAGCTGGTTGAGGGAGGGGACACAGAGCAGGAGACAGAGGCCCCATGTGGATCAAAGGAGTGACAAGGGAGGGCCCATGCTCAGTGATATGAGAACAGCAAGAGGCAACAAACAAGATACAAAAGGATACACACTTCCATCCCATTCATGTACTGCCAGTCGGATAGTGTTCC | 2.09 | 1.76 | 0.182 | -0.974
8 | GATGGACCCTATACGCGGCGCGGAAACCACCTCGACAGCCTCCAGAAAGGGGCGTGGCTGAAAATGTAGGGGCGTGGCCACGTGGGCATCAGGAAGAAGTAACCTGTTGAATCTATTTCTGCTCCCCACCCTTACTGCTTCCCATAAGGGGGAAGCCGCAGACTAATAAGCCTCTTCCAAAAAAGAGGTAAAGGGAGGTAGACAAGGGGCTGCCAGTCGGATAGTGTTCC | 2.58 | 0.415 | 0.23 | -0.727
9 | GATGGACCCTATACGCGGCATGGTTTTGCCTATGTCCACCTACTGAGAGGGATAGTATAATTACCTTAACAATGATGCTCCCTTCATCATAGCCCAAAGCGACATTGTTTGACCCTCTTAGACTGGCCACGCACCATACCCTCTCCATTCCATAATTCAGTGTGCTCTCAAGCCGGTAGGTGCTTGAATGCCAAATACGTACTGTTCCTATGCCAGTCGGATAGTGTTCC | 1.23 | 0.705 | 0.401 | -0.265
10 | GATGGACCCTATACGCGGCATCCCTTCCCCACCTACCAGGCTTCCAGGGACACCCACGTGCAGGGACACACTCCTCCCAACACACACAGCCAGGATCACAGTGCCACACAGGTGTGTCCCACGTGCCACAGGAACCGAGGAATAGTGCACACTAACACATGCATGGAAATCCCACACCCATATGCAGACGCGTACACTCCTGGCTCTGAATGCCAGTCGGATAGTGTTCC | 2.35 | 0.0439 | 0.81 | -0.227
11 | GATGGACCCTATACGCGGCTTGCAGTCATTCTGTCATGTCACCCACTGAGGAGACTGCACACAAACTGCTTGAGGACAGGAGCTGTGTTATGCACACCTTTTGTCACTCATGACAGCCTGTTAACACACTGCCAGACACATAGCCAGTGCTCAATTACACGGCTGAGTAGGACAGACCACACAGTTATTACCCCCTTTGAGCACACCATTTGCCAGTCGGATAGTGTTCC | 0.238 | 0.085 | 0.347 | -0.799
12 | GATGGACCCTATACGCGGCCAAGTGAGAAAGGCAGAAGAACTGAGTTAGCCCAAGGCCACCCAGAGAACTGTCCTGTACACATGTGCATGGATGATGCATCCAGAGAGTGTGCTGAAGGCTGAGTCACCTCCACCCCCAACACCAACAGGGAGGATAATGAGTCAACAGGATTACCTCTTCTCAGCCCTTCTAACTTACAGCTGGAGGGCTGCCAGTCGGATAGTGTTCC | 1.57 | 0.324 | 0.123 | -0.196
13 | GATGGACCCTATACGCGGCAAAATGCTTATGTGTGAGGCTGGGCACAATGGCTCACACCTGTAATCTCAATGTTTCTGGAGGCCAAGGCAGAGGCCTCTTGAGGCCAGGAGTTCAAGACAAGCCTGGGCAAGACCCTGTCTCTACAAAATAAAAATAAAAATTAGCCGGGTTGGTGGTGTGCCTTGTAGTCCCAACTACTTAGGAGGCTGTGCCAGTCGGATAGTGTTCC | 1.84 | 0.564 | 0.45 | -0.358
14 | GATGGACCCTATACGCGGCATTTGGGCATGGGTACTGATCTCATACATCAAACACACAAGTACATACATACAATGCACACACACAAACTCAGGAACACCTCCATGAATGCTGACCACATGCACTTGCATATGCAAGCATCAGGCATGCGCACACCCCCACCACCACATTCATGTGCATATGCAGACATGCACATACATGTGCACCTCCATTGCCAGTCGGATAGTGTTCC | 1.34 | 0.362 | 0.841 | -0.34
15 | GATGGACCCTATACGCGGCCAGGTCTCACTGTGCAAGGCAGGGATGCCCTGGGCTGTGGGAGCTGCCAGTGGGTGGGGCCTGCACACGTGGTCTGGGAGCAGTAACCCTGGAGACATCCTCTAGGCACGTGTGAGGCCTGGGAGACTCGGCAAGGAGGAGGGCTGAGAGCAGTGAAGTGTAGGGACAATGTATTAACAACAGGCTCAAACTGCCAGTCGGATAGTGTTCC | 1.61 | 0.793 | 0.414 | -0.685
16 | GATGGACCCTATACGCGGCGCAAAGACCTGCACCCTCCCACCTCCAACCAGAATGCCACCCACATGTGCTTCCACAGACACATTCTGGAGCTGCCACCCTCCACCCGGGTCCTTCTGTCTCTTTCTCAAACTAAATTAGCCAAAGTCGGCCAATCCTGGGTAGACTTCCACTACTGGCAAATCAGTCTTTTGATTGAGAAAGGTGCCCTTTGCCAGTCGGATAGTGTTCC | 1.48 | 0.735 | 0.0647 | -0.33
17 | GATGGACCCTATACGCGGCCCCCTAACAAACAACTTTGCCTCAAAGACACCCAAACAACTGTGCTGAACATTTTCACCCTCCCTTCCTCCTTTCCTTCCCTTCTTCACACAGGATCAGACTTGCTTTGTGGTCTGATGGTTCTCCCGGCTTTATTCAGAGCCTTCTGTTTTCCCTCACACAGGTGTTTCCTCCTGATAAGTCATTACACTTGCCAGTCGGATAGTGTTCC | 1.88 | 0.595 | 0.119 | -0.452
18 | GATGGACCCTATACGCGGCGTTGTCTAGTTTGGTCTGGTCCAGTTTGGTTTGGTCTTGTCCAGTCCAGTCTTGTCTTGGAGTTTCACTCTTCCGCCCAGGCTAGAGTGAAGTTTCGGCATCTCAGCTCACTGCAACCTCCGCCCCTGAGTTCAGGCGATTCTCCTACGAGTAGCTGGGATTGTAGGCGCCTGCCACCACACCTGGGTAATTGCCAGTCGGATAGTGTTCC | 2.41 | 0.119 | 0.227 | -0.911
19 | GATGGACCCTATACGCGGCCCGTTTTCACGCTGTTCATAAAGACATACCCAAGACTGGGCAATGTACAAAAGAAAGAGATTTAATGGACTCACAATTCCACGTGGATGGGGAGGCCTCACAGTCATGGCAGAAGGTGAAAGGCACATCTCACATGGCGGCAGACAAGAGAAGAGTGACAGCCAAGCGAAACGGGTTTCCCCTTATAAAACTGCCAGTCGGATAGTGTTCC | 1.58 | 1.24 | 0.444 | -0.154
20 | GATGGACCCTATACGCGGCTAAACAAAATAGAAAAGGAAGACTGGGGATAAGCTCTTGTCTGAACTCTGTCTCATCTCTGTGGCTAGGAGTGGCCCGCCTTTCCAGGCTGCCCAGCAAGTCACAGCATGTAGCCTTCCCTTTTGGTTCAAGGGAAGTCTAGTTAAAATAAGGGCAAAGCTGTCCTAGAGAGAAAAGATGTGATGAGCAGGTGCCAGTCGGATAGTGTTCC | 1.15 | 1.02 | 0.33 | -0.313
21 | GATGGACCCTATACGCGGCATGTCTCTTTTTTCAAAAAGCAGCTGACCACCCATTTCCTGGCCCCACCCCTCCCACATTCTTCCAGCACATGCTCCTGTCTCCCTTGTAGTGCTGAGCACTGCTGTGACTGTACAGGGGTTGGGCCCTGCTTTTGATTAGTGCCTGTTTCTTATTGTGAGTTCCAAGAGGACATGTTCCTTTTACTCTGTTGCCAGTCGGATAGTGTTCC | 1.72 | 0.316 | 0.522 | -0.666

Reprinted, entries 2 to 3
Row | Sequence | binding signal (log2 relative supershift) (KLF4 + histone octamer) | binding signal (log2 relative supershift) (SOX2 + histone octamer) | binding signal (log2 relative supershift) [1] | binding signal (log2 relative supershift) (OCT4 + histone octamer)
2 | GATGGACCCTATACGCGGCAAATGGGAGTATTTAGCTGGTATATGACCTTCTTCTAGGAACACTTGACTGGTAAGGCAAAAATGCCTCAAGGGAGCATGTGCACAGTTTCAGTAAACACTGTGCATGTGGCCCCTCCCAAGTGCTGGCAGGCTACTGTACATGTGGACAGTCCACCCCAAGGGAAGAATCAGGAGAAAGGATGCAACCCTTGCCAGTCGGATAGTGTTCC | 2.31 | 0.0232 | 0.401 | -0.218
3 | GATGGACCCTATACGCGGCTGGTTCATGTTCTTTATTGAACACCTTACATGGGTATGGACAGGGCCTATGGGTGGGGCAAGGCAGCAATGACAGCCTCAGTGAAGTCATGGCAAGTAGCATAGCCACCCATGTCAGAGGTTCGAACCTGTGGGGGAGAATCATCATCATCCATGTGGCCTGGGCTCCATCCTAACAATCCCCATCACCACTGCCAGTCGGATAGTGTTCC | 1.23 | 0.571 | 0.511 | -0.969
